Assay results published in publication PMC7816512.

T1: FLAG-HA-Rbm10 (S. pombe) (UniProt P87143)
T1 sequence: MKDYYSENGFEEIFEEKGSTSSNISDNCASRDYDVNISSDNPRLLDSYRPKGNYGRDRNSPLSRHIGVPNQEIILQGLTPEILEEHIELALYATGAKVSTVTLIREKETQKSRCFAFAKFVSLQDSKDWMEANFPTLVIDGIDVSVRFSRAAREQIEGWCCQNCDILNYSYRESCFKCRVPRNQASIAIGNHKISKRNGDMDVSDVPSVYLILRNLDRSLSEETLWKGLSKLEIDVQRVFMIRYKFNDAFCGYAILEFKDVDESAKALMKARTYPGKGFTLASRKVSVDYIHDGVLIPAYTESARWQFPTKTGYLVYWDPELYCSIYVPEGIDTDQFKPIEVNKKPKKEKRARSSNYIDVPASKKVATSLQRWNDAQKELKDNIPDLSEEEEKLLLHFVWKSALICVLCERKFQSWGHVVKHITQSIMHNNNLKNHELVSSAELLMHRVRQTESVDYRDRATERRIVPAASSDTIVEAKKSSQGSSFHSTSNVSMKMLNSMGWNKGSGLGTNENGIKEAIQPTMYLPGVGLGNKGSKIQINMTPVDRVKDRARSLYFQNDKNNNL


Each binder was assayed against T1, FLAG-HA-Rbm10 (S. pombe) (assay: affinity purification with mass spectrometry; two-step purification (anti-FLAG beads, 3xFLAG peptide elution, then uMACS HA magnetic beads) of overexpressed FLAG-HA-Rbm10 from S. pombe lysate with Benzonase; three independent purifications; control purification from an untagged strain).

Binder | binding
Cwf3 (protein, UniProt Q9P7R9 1-790) MGDVIPLKVNFDLINVDDEPFELELLRDPYSLKSWLRYIKTHEGSTLEKRVLLFERACSELPGSYKIWKSYLELRVAHVEHLNPYFHAEAFASVNDCFERSLILLHKMPVIWKLYLQFLMKQPNVTKIRCTFNSALRALPVTQHDDIWDMFTKYAEDIGGLFCIHVYRRYIQVEPRAIENYIEILCKLGLWNEAARQYEDILNRPVFLSAKRKSNYQIWLEFSELVVQHPDHTQNIDVEKVFRAGIKRFSDQAGKLWTYLAQYYIRIGDYEKARSTFYEGMNNIMTVRNFTIIFDAFVEFEEQWLSARVEASSGNANDELSIDFHMAWLEKILDKRPLYINDVLLRQNINNVDEWLRRVKFLEDDSEKVVQVYTDAIKNVNPKLAHGSLGKLFSEFARFYENFDDLEQSRIIFEKATHVPYKTVNELAQVWIDWAEMELRHQNFDAARKLIGDAVHAPRKSHISFFDESLSPQVRLHKSSKIWMYYLDLEESVGTIETTRKLYDRVFELKIATPQVVVNYANLLEENAYFEDSFKIYERGVALFSYPVAFELWNLYLTKFVKRYQGTHMERTRDLFEQALEGCPPEFSKSIYLLYADFEEKFGKAKRSISILEKAADKVKTADRLAIYNVLLVKVALNYGVLATRTVYEKAIESLSDSEVKDMCLRFAEMETKLGEIDRARLIYIHGSQYCDPRVETDYWKAWQEFEIRYGNPEETVKEMLRIKRSVQTKFSTDSLHIAKRAAKIESAAAPMDPMEQLEMEKSEGPKALAGFVLSKSNPQETSKITGEEN | binds
Cwf5 (protein, UniProt O59800 1-354) MSHGPKGDINKQEWEDVEFPSICERCLGDNSYVRMTKEPLGQECKICSKPCTIFRWIKERGQKPGKTQICVGCARYKNCCQSCMLDLQFGLPIALRDAALKLVESGPTNDINREFFAQNQQRLLSNGETAYDSQEASAAARNLVKKVEKRELHSRPPKRKLDDVESKQILKEARASDASLNAERPLFPVKKIINGNVSLSINMEPPKDKKIASLFLIGVEDELADYKIRKHFEQYGPLKSVVCSHRAKCAFVNFKTRSSAEIAAAASPDGNVVIEGFRLKVQWGKPRSLGGPEGEVRNAKLADLVMRGSSHGNKTSQKSTIKNIENEDHENTKSPAVAIPIDPNQPRYRSQIPR | binds
Ini1 (protein, UniProt Q9UTB8 1-117) MSKHHPDLVLCRRQPGITVGKLCERCDEKCPICDSHVRPTTLVRICDECAFGSSQDRCIICGAPGVSDCYYCSECTRMEYDRDGCPRVINLGSSRTDWFYERKKFKNAGKEMPGATY | binds
Gpd3 (protein, UniProt O43026 1-335) MAIPKVGINGFGRIGRIVLRNAILTGKIQVVAVNDPFIDLDYMAYMFKYDSTHGRFEGSVETKGGKLVIDGHSIDVHNERDPANIKWSASGAEYVIESTGVFTTKETASAHLKGGAKRVIISAPSKDAPMFVVGVNLEKFNPSEKVISNASCTTNCLAPLAKVINDTFGIEEGLMTTVHATTATQKTVDGPSKKDWRGGRGASANIIPSSTGAAKAVGKVIPALNGKLTGMAFRVPTPDVSVVDLTVKLAKPTNYEDIKAAIKAASEGPMKGVLGYTEDSVVSTDFCGDNHSSIFDASAGIQLSPQFVKLVSWYDNEWGYSHRVVDLVAYTASKD | binds
Cwf4 (protein, UniProt P87312 1-674) MTSEAPRVKNKNPAPIQISAEQLLREAVERQDVAFVPPKINITDLEELQEFQGRKRKEFEDAIRRNRLAMGHWMRYGQWELDQKEFARARSVFERALDVDSTYIPLWLKYIECEMKNRNINHARNLFDRAVTQLPRVDKLWYKYVYMEEMLGNITGCRQVFERWLKWEPDENCWMSYIRMERRYHENERARGIYERFVVVHPEVTNWLRWARFEEECGNAANVRQVYLAAIDALGQEFLNERFFIAFAKFEIRQKEYERARTIFKYAIDFMPRSKSMELYKEYTHFEKQFGDHLGVESTVLDKRRLQYEKLLKDSPYDYDTWLDLLKLEESAGDINTIRETYEKAIAKVPEVVEKNAWRRYVYIWLNYCLFEEIDVKDVDRARKVYQEALKLIPHKKFTFAKLWLMYAMFELRQRKIDVARKTLGRALGMCPKPKLFRGYIEFEDAIKQFDRCRILYEKWILYDPEACAPWLGYAALETKLGDSDRARALYNLAVNQPILETPELVWKAYIDFEFEEMEYGKARSIYQQLLRTAPHVKVWISFANFEIAHLEDDDEEPPNEEVASPTAVVRARNVFENALAHLRQQGLKEERVVLLEAWKQFEAMHGTEDTRKHVSSLMPQVVKKRRRLEDGSFEEYLDYLFPDTATDQGDKMRKMLELSRKWKEEMAKKKLEA | binds

The remaining lines, values ahead:

binding | Binder
binds | Prp1 (protein, UniProt Q12381 1-906) MANFYPDFLNMQPPPNYVAGLGRGATGFTTRSDLGPAQELPSQESIKAAIEQRKSEIEEEEDIDPRYQDPDNEVALFATAPYDHEDEEADKIYQSVEEHLSKRRKSQREKQEQLQKEKYEKENPKVSSQFADLKRGLSTLTDEDWNNIPEPGDLTRKKRTKQPRRERFYATSDFVLASARNENQAISNFAVDTQAGTETPDMNGTKTNFVEIGAARDKVLGIKLAQASSNLTSPSTIDPKGYLTSLNSMVPKNANDLGDIRKARKLLQSVIETNPKHASGWVAAARLEEVANKLSQAQSLILKGCENCSRSEDVWLEAIRLHPAAEAKVIIANAVKKLPKSVTLWLEAEKLENQAQHKKRIIKKALEFNPTSVSLWKEAVNLEEEVDNARILLARAVELIPMSIDLWLALARLETYENAKKVLNKARQTIRTSHEVWIAAARLEEQQGNVSRVEKIMARGVSELQATGGMLQRDQWLSEAEKCETEGAVITAQAIINTCLGVGLDEEDQFDTWLDDAQSFIARKCIDCARAVFAFSLRVYPKSEKLWLRAVELEKLYGTTESVCSILEKAVESCPKAEILWLLYAKERKNVNDIAGARNILGRAFEYNSNSEEIWLAAVRIEFVNNENERARKLLARARIESGTERIWTKSISLERILDEKDRALQLLENALKIYPHYDKLYMMKGQIFEDKEQIELARDAYLAGTKVCPYSIPLWLLLAKLEEKQSVIRARVVFDRAKVKNPKNEFLWLELIKMELRAGNISQVRAALAKALQECPSSGLLWTEAIWLEPRAQRKTRATDALRKCEGNAHLLCTIARMLWLEKKADKARSWFLKAVKADQDNGDVWCWFYKYSLEAGNEDQQKEVLTSFETADPHHGYFWPSITKDIKNSRKTPQELLHLAINVL
binds | Prw1 (protein, UniProt O14021 1-431) MAVSAVPHPSKQAQASEEGINQEKCINEEYKIWKKNSPFLYDLIITRALEWPCMSLQWYPEQQIFAEHGYTEQKMFLGVRADVGKYLLAVASIQLPYLNQTVPPTTMEGASAGDESSLRVNISNLYSHPESVCSAKLMPQDDSCVATVGNYHNDVLVFDKESFESYSSASESPLKPKYRLTKHTQPCTSVCWNFLSKGTLVSGSQDATLSCWDLNAYNESDSASVLKVHISSHEKQVSDVRFHYKHQDLLASVSYDQYLHVHDIRRPDASTKPARSVHAHSGPIHSVAFNPHNDFILATCSTDKTIALWDLRNLNQRLHTLEGHEDIVTKISFSPHEEPILASTSADRRTLVWDLSRIGEDQPAEEAQDGPPELLFMHGGHTSCTIDMDWCPNYNWTMATAAEDNILQIWTPSRSIWGNEQLEEDATAYLS
binds | Prp10 (protein, UniProt Q10178 1-1205) MSTGTYPYKMFKMDVTNLNKVEDVEIERLRAERELLRRQKEAAKNSSTNGSVNIEGTQDSNDLQYNAHLFKSSNPKEEYDSAIDVRNDISQDEDDYKRTNDVNDSYRLVRQYEAPKELLNEYADESYDPMQERQSKKQIQDRESDYQKQRYDRQLTPTRVDAFQPDGTQSNGRSYAEVMRQVELEKEERRVHMELNQRRREGTLKEVEEEESISDKKRELELNNTEISQKPKRSRWDQAPPSVTQVSTTKRRSRWDKAPENFTISEHVIENGISEDLINKEVNVVEEKLRPPVRLLTEEELNELLPSEGYAILEPPPGYLESIHPELLQKGTTLDTYHVPQEQELPLEKELPAALPTEIPGVGDLAFFKQEDVKYFGKLLKVEDEAKLTIAELRERKILRLLLKVKNGTPPMRKSALRQLTDQARDFGAAALFNQILPLLMERTLEDQERHLLVKVIDRILYKLDDLVRPFTHKILVVIEPLLIDEDYYARAEGREIISNLAKASGLAHMIATMRPDIDHVDEYVRNTTARAFSVVASALGVPALLPFLKAVCRSKKSWQARHTGVRIIQQIALLLGCSILPHLKNLVDCIGHGLEDEQQKVRIMTALSLSALAEAATPYGIEAFDSVLKPLWSGVQRHRGKSLAAFLKATGFIIPLMEPEYASHFTRRIMKILLREFNSPDEEMKKIVLKVVSQCASTDGVTPEYLRTDVLPEFFHCFWSRRMASDRRSYKQVVETTVVLAQQVGSRQIVERVVNNFKDESEPYRKMTAETVDKVIGSLGVSEIDERLEELLLDGVLFAFQEQSVEEKVILTCFSTVVNALGTRCKPYLPQIVSTILYRLNNKSANVREQAADLVSSITIVLKACGEEALMRKLGVVLYEYLGEEYPEVLGSILGAIKAIVSVVGMSSMQPPIRDLLPRLTPILRNRHEKVQENTIDLVGKIADRGSEYVSAREWMRICFELIDMLKAHKKSIRRAAVNTFGYISKAIGPQDVLATLLNNLKVQERQNRVCTTVAIAIVAETCMPFTVVPALMADYRTPEMNVQNGVLKSLAFMFEYIGEQARDYVYAITPLLADALMDRDAVHRQTAASVIKHLSLGCVGLGVEDAMIHLLNILWPNILEESPHVINAVREGIDGIRNCIGVGPIMAYLVQGLFHPSRKVRNTYWTSYNSAYVQSADAMVPYYPHVDDDQFNNYDMKTLHICI

These are yes or no findings as the source states them, for the method shown. In cells and extracts the contact can be indirect. Here binding means that the protein was enriched with, or labelled near, the bait; the list need not be complete. Where a sequence is shown, tags or fusion partners need not be part of it.
